Measurements reported in article PMC7062800.
For at least one entry, the source does not settle the construct or the ends of the probe. For some of these results: A negative result means that nothing was seen under these conditions. For some of these results: At least one verdict rests on a figure or table, not on a statement of the authors.

Assays:
[1] = system: RdhK1 (CprK4) (Desulfitobacterium hafniense DCB-2); assay: EMSA; settings: EMSA: 100 ng DNA, 2 uM protein, 200 uM effector, 15 uL, 40% glycerol, 10 mM MgCl2, 500 mM NaCl, 5 mM EDTA, 10 mM DTT, 30 min, recombinant protein
[2] = system: RdhK6 (CprK1) (Desulfitobacterium hafniense DCB-2); assay: EMSA; settings: EMSA: 100 ng DNA, 2 uM protein, 200 uM effector, 15 uL, 40% glycerol, 10 mM MgCl2, 500 mM NaCl, 5 mM EDTA, 10 mM DTT, 30 min, recombinant protein

GAATTCTCAGGCGATGTAACCGCTTTCAAATTTAGTATACGCTAAATATCTTAACAATGTGATAGCTATGATTGCACCG (double strand) [mgl-DB8]
binding result ([1]; 200 uM 3,5-DCP): binds | binding result ([1]; 200 uM Cl-OHPA (no increase over no effector)): binds | binding result ([2]; 200 uM 3,5-DCP): no binding | binding result ([2]; no effector): no binding
